Test results: patent publication US20040259198A1, “Purified and isolated mat II beta subunit nucleic acids and polypeptides and therapeutic and screening methods using same” (priority 1999, published 2004)
Results are given in words; binding and its absence hold for the method and conditions named. For some assays here: In cells and extracts the contact can be indirect. Some results given as binding are weak or reduced against the parent protein; the word gives no strength. Tags and fused reporters may be left off the sequences shown.

The chains behind the UniProt entries cited, without tags or fusion partners.
UniProt P31153: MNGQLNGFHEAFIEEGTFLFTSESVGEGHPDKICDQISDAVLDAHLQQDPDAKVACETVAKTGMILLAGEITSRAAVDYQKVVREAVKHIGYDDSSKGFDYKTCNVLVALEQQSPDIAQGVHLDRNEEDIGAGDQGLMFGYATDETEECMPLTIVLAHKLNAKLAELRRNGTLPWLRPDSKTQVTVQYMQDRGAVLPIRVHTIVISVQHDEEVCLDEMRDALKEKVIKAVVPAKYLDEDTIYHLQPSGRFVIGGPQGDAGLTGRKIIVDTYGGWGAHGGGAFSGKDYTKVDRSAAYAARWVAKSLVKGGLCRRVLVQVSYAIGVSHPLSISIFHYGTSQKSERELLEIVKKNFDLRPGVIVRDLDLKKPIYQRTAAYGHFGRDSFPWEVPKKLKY

Key:
[1] = biological target: T1, endogenous E. coli MAT α subunit (E. coli) (UniProt P0A817); test: co-purification / MAT kinetic assay
T1 sequence: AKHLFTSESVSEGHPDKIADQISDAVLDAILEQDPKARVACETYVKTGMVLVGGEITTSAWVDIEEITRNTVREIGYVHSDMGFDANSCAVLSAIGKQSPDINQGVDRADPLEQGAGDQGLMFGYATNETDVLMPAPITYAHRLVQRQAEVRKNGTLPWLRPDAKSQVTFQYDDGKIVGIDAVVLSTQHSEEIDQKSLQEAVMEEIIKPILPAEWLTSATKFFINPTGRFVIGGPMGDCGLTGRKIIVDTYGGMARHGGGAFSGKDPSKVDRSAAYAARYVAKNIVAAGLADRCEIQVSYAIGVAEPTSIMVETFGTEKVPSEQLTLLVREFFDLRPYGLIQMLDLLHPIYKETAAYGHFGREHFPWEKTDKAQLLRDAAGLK

[2] = biological target: T1, endogenous E. coli MAT α subunit (E. coli); test: Ni-agarose co-purification, Western blot
[3] = biological target: recombinant human MAT II α2 subunit expressed in E. coli from the pQE-30 vector (human) (UniProt P31153); test: MAT kinetic assay
[4] = biological target: T1, endogenous E. coli MAT α subunit (E. coli); test: Ni-NTA agarose purification under native conditions
[5] = biological target: T1, endogenous E. coli MAT α subunit (E. coli); test: Ni-NTA agarose co-purification, Western blot

Measured: binding

B1: recombinant human MAT II β subunit protein with N-terminal poly-His tag, expressed in E. coli from pQE-30 (Clone 5) (protein, not shown: small tags and cut ends)
chain: MVGREKEISIHFVPGSCRLVEEEVNIPNRRVLVTGATGLLGRAVHKEFQQNNWHAVGCGFRRARPKFEQVNLLDSNAVHHIIHDFQPHVIVHCAAERRPDVVENQPDAASQLNVDASGNLAKEAAAVGAFLIYISSDYVFDGTNPPYREEDIPAPLNLYGKTKLDGEKAVLENNLGAAVLRIPILYGEVEKLEESAVTVMFDKVQFSNKSANMDHWQQRFPTHVKDVATVCRQLAEKRMLDPSIKGTFHWSGNEQMTKYEMACAIADAFNLPSSHLRPITDSPVLGAQRPRNAQLDCSKLETLGIGQRTPFRIGIKESLWPFLIDKRWRQTVFH
binds: all assays above
